## Primary screen of a compound library

Sequences of proteins named here, by UniProt entry; tags and fusion partners are left off.
UniProt E9BF75, entry or part of it: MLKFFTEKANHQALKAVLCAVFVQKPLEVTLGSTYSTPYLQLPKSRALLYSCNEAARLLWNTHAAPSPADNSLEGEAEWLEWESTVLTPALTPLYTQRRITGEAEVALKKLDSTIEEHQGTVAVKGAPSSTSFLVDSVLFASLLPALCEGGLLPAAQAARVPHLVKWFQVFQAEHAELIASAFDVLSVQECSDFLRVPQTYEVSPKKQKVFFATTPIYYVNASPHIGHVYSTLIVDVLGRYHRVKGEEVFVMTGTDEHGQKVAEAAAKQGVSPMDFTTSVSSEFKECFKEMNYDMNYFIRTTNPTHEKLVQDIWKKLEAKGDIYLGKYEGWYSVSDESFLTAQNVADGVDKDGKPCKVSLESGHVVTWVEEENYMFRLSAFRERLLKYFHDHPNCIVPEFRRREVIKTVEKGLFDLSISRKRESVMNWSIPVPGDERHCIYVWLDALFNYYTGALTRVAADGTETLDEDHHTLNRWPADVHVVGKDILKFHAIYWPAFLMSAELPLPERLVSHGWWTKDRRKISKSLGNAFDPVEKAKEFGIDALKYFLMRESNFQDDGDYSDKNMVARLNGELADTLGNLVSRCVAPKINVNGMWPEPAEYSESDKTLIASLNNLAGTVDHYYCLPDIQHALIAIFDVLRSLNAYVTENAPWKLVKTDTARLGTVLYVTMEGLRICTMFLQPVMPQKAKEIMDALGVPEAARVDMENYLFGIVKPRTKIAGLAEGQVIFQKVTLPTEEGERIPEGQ

Measurements from “University of Dundee, Small-Polar-MMV Screening Library” (2021), ChEMBL document CHEMBL3988442.

A: 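Primary screen of methionyl-tRNA synthetase; the read-out is not stated. Target: Methionyl-tRNA synthetase (putative), Leishmania donovani (UniProt E9BF75). The test concentration is not given. The values are filed as inhibition. Of about 68,000 compounds tested this way, about 24 (0.035%) reached 50% or more in at least one test.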
B: 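Assay on Mycobacterium tuberculosis, filed only as a heat shock assay from Cornell; the read-out is not stated. The concentration is filed as 10 mM, unlikely as a test dose, so the dose is not known. Higher reads as stronger inhibition (inferred: compounds with an IC50 in retests scored well above the rest). About 69,000 compounds were tested under these conditions; 1.4% (about 930) showed 50% or more at least once.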

Results are percentages, as filed. The controls that fix the scale are not given in the record; negative values are as filed. The compounds are a random part of those screened.

CCc1noc(CN(C)CCC(=O)Nc2ccccc2C#N)n1 gave A: 15.22%; B: -10.54%. NC(=O)c1ccnc(N2CCN(Cc3ccc(F)cc3Cl)CC2)c1 gave A: 2.174%; B: -3.498%. COCCN(C)C[C@@H]1CN(C(=O)C(C)(C)c2ccccc2)C[C@@H]1CO read A: -6.197%; B: -5.205%. Result for CN(C)C(=O)CN1C[C@@H]2CC[C@H](C1)N(Cc1ccc(Cl)cc1Cl)C2 was A: 21.61%.

Result for Cc1cn2c(n1)CCC(NC(=O)c1ccc(CS(C)(=O)=O)o1)C2 (stereo not shown) was A: 19.39%; B: -0.08919%. With CCN1CCCC1CNCc1cc2cc(OC)ccc2[nH]c1=O (stereo not shown) the screen gave A: 8.399%; B: 3.031%. O=C(Nc1cnn(C2CCOCC2)c1)c1ccc2c(c1)OCO2 gave A: 8.732%; B: -17.89%. With O=C(c1cccc(F)c1)N1CCCC1c1ncc2c(n1)CCNC2 (stereo not shown) the screen gave A: 6.353%.

With [H][C@@]12CNC[C@]1([H])N(C(=O)c1ccoc1)CCO2 the screen gave B: 8.539%. With CC(C)(C)C(=O)N1CCCC1(C(=O)N1CCCC1)c1cnccn1 (stereo not shown) the screen gave A: 4.07%; B: -13.23%. COCCC(=O)N1CCC(c2nc(O)cc(-c3ccncc3)n2)C1 (stereo not shown) read A: 8.854%; B: -7.55%. [H][C@]12CCCCN1CCC[C@@]2(O)CN1CCC(O)(Cn2ccnc2)CC1 gave B: -9.572%.

CC(NC(=O)Nc1nccs1)c1ccc(S(C)(=O)=O)cc1 (stereo not shown) read A: 13.23%; B: 9.698%. With CC1COCCN1Cc1nc(-c2ccc(F)cc2)no1 (stereo not shown) the screen gave A: 19.44%; B: -6.247%. COc1cccc(-c2n[nH]cc2CNC2CCCN(C)C2)c1 (stereo not shown) read A: 8.287%; B: -2.93%. O=C(O)C(F)(F)F.[H][C@@]12C[C@H](C)O[C@@]1([H])CCN(S(=O)(=O)c1c(C)nn(C)c1C)C2 gave B: 8.738%.

Result for CCn1c(N)nc2cc(C(=O)N3CCCOCC3)cnc21 was A: 1.985%; B: 12.92%. COCCNC(=O)Cn1ccc2ccc(F)cc21 gave A: 17.25%; B: 14.54%. [H][C@@]12CN(CCO)C[C@]1([H])C(=O)N(Cc1ccc(OC)cc1)C2 gave B: 1.55%. With COc1c(C(N)=O)cn(C)c1-c1nc2cc(NC(C)=O)ccc2n1C the screen gave A: 12.42%; B: -7.578%.

Cc1ccc2[nH]c(C(=O)N3CCC4(CC3)C(=O)NCCN4C)nc2c1 gave A: 15.35%; B: -2.587%. With CCc1[nH]ncc1C(=O)N1CCOC(c2nc(C)n[nH]2)C1 (stereo not shown) the screen gave A: 7.163%; B: 8.439%.

The last 2 entries again:

compound,A,B
Cc1ccc2[nH]c(C(=O)N3CCC4(CC3)C(=O)NCCN4C)nc2c1,15.35,-2.587
CCc1[nH]ncc1C(=O)N1CCOC(c2nc(C)n[nH]2)C1 (stereo not shown),7.163,8.439